PubChem BioAssay AID1259405 – NCATS | 2018

Aim: 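Mouse-designed siRNAs used to find CHO productivity engineering targets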 (primary screen)
Cell system: Chinese hamster CHO-K1 ovary cells with stable secreted eGFP expression
Knock-down reagent: single siRNA against mouse genes, 0.8 pmol siRNA per well (2 µl of 400 nM stock)
Duration: 3 days
Detection: 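Percent of the per-plate non-targeting control median for intracellular GFP per well by laser scanning cytometry and for cell viability by ATP luminescence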
Reading the numbers: GFP, % of control: higher = more GFP per well, higher productivity; viability (ATP), % of control: higher = more viable cells (more ATP)
Hit rule: 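Called active when intracellular GFP, relative to negative control, is at or above 120%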
Shown is an unselected part of about 50,000 reagents. Of all reagents, about 4,000 (8%) were called active. 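Mouse siRNA library applied to hamster cells; one well for each siRNA.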 Unmarked entries are inactive. Reagents against one gene are numbered here.

no.	gene knocked down	siRNA no.	GFP, % of control	viability (ATP), % of control
1	Mpp2	1	84.8	66
2	Jph1 (junctophilin 1)	1	49.1	59.2
3	Jph1 (junctophilin 1)	2	54.1	66
4	Jph1 (junctophilin 1)	3	77.9	55.3
5	Sftpc (surfactant associated protein C)	1	99	88.5
6	Sftpc (surfactant associated protein C)	2	58.9	71.3
7	Sftpc (surfactant associated protein C)	3	47.9	62.3
8	Ryr2 (ryanodine receptor 2, cardiac)	1	92.1	89.4
9	Ryr2 (ryanodine receptor 2, cardiac)	2	48.3	51.3
10	Ryr2 (ryanodine receptor 2, cardiac)	3	89.9	75.9
11	Bcar3 (breast cancer anti-estrogen resistance 3)	1	29.2	36.2
12	Bcar3 (breast cancer anti-estrogen resistance 3)	2	98.8	125
13	Bcar3 (breast cancer anti-estrogen resistance 3)	3	65.3	82.6
14	Gins3 (GINS complex subunit 3)	1	57.7	66.4
15	Gins3 (GINS complex subunit 3)	2	56.8	65.6
16	Gins3 (GINS complex subunit 3)	3	60.2	89
17	Vps50 (VPS50 EARP/GARPII complex subunit)	1	92.2	68.7
18	Vps50 (VPS50 EARP/GARPII complex subunit)	2	35.6	90.5
19	Vps50 (VPS50 EARP/GARPII complex subunit)	3	65.6	74.4
20	Sox5 (SRY (sex determining region Y)-box 5)	1	87.7	108
21	Sox5 (SRY (sex determining region Y)-box 5)	2	65.6	56.1
22	Sox5 (SRY (sex determining region Y)-box 5)	3	92.5	103
23	Or1e25 (olfactory receptor family 1 subfamily E member 25)	1	32.7	22.9
24	Or1e25 (olfactory receptor family 1 subfamily E member 25)	2	87.4	73.9
25	Or1e25 (olfactory receptor family 1 subfamily E member 25)	3	53.8	113
26	Faim (Fas apoptotic inhibitory molecule)	1	70.5	75.7
27	Faim (Fas apoptotic inhibitory molecule)	2	61.6	61.7
28	Faim (Fas apoptotic inhibitory molecule)	3	88.2	51.4
29	Sost (sclerostin)	1	141 (active)	87.9
30	Sost (sclerostin)	2	76.6	75.6
31	Sost (sclerostin)	3	55.7	52.8
32	Prim1 (DNA primase, p49 subunit)	1	68.8	106
33	Prim1 (DNA primase, p49 subunit)	2	57.6	73.2
34	Rnf227 (ring finger protein 227)	1	81	56.9
35	Rnf227 (ring finger protein 227)	2	66.8	40.5
36	Rnf227 (ring finger protein 227)	3	66.5	95.3
37	Nkap (NFKB activating protein)	1	87.3	80
38	Nkap (NFKB activating protein)	2	119	108
39	Nkap (NFKB activating protein)	3	66.6	50.6
40	Gpam (glycerol-3-phosphate acyltransferase, mitochondrial)	1	132 (active)	76.4
41	Gpam (glycerol-3-phosphate acyltransferase, mitochondrial)	2	70.2	55.8
42	Gpam (glycerol-3-phosphate acyltransferase, mitochondrial)	3	59.8	86.1
43	Tec (tec protein tyrosine kinase)	1	110	89.6
44	Tec (tec protein tyrosine kinase)	2	59.6	56.9
45	Tec (tec protein tyrosine kinase)	3	114	68
46	Oas1b (2'-5' oligoadenylate synthetase 1B)	1	126 (active)	35.3
47	Oas1b (2'-5' oligoadenylate synthetase 1B)	2	81.6	68.1
48	Oas1b (2'-5' oligoadenylate synthetase 1B)	3	42.8	57.4
49	Krt27 (keratin 27)	1	55.1	45.5
50	Krt27 (keratin 27)	2	52.5	58.9
51	Krt27 (keratin 27)	3	91.5	75.3
52	Gm20815 (predicted gene, 20815)	1	77.9	68.7
53	Gm20815 (predicted gene, 20815)	2	72.9	32.7
54	Gm20815 (predicted gene, 20815)	3	51.9	61.3
55	Zfp398 (zinc finger protein 398)	1	52.2	63.9
56	Zfp398 (zinc finger protein 398)	2	65.3	74.8
57	Zfp398 (zinc finger protein 398)	3	65	74.5
58	Stac (src homology three (SH3) and cysteine rich domain)	1	94.8	75.5
59	Stac (src homology three (SH3) and cysteine rich domain)	2	76.2	80.9
60	Stac (src homology three (SH3) and cysteine rich domain)	3	69.8	78.6
61	Nrp2 (neuropilin 2)	1	52.3	40.7
62	Nrp2 (neuropilin 2)	2	62.2	82.1
63	Nrp2 (neuropilin 2)	3	81	68.7
64	Add2 (adducin 2)	1	89.9	84.1
65	Add2 (adducin 2)	2	67.2	72.8
66	Add2 (adducin 2)	3	104	88.7
67	Nms (neuromedin S)	1	52.6	47
68	Nms (neuromedin S)	2	69.6	76.6
69	Nms (neuromedin S)	3	101	61.6
70	C6 (complement component 6)	1	62.7	55.4
71	C6 (complement component 6)	2	128 (active)	96.5
72	C6 (complement component 6)	3	79.6	68.6
73	Npc1 (NPC intracellular cholesterol transporter 1)	1	49.2	77.2
74	Npc1 (NPC intracellular cholesterol transporter 1)	2	85.8	76.4
75	Npc1 (NPC intracellular cholesterol transporter 1)	3	65.2	56.2
76	Gm5617 (predicted gene 5617)	1	79.9	43.5
77	Gm5617 (predicted gene 5617)	2	142 (active)	96.9
78	Gm5617 (predicted gene 5617)	3	120	64.1
79	Npnt (nephronectin)	1	71.4	52.7
80	Npnt (nephronectin)	2	75.2	79.7
81	Npnt (nephronectin)	3	26.3	43.6
82	Fam20b (FAM20B, glycosaminoglycan xylosylkinase)	1	77.9	81.9
83	Fam20b (FAM20B, glycosaminoglycan xylosylkinase)	2	60.2	35.1
84	Fam20b (FAM20B, glycosaminoglycan xylosylkinase)	3	81	88.8
85	D830039M14Rik (RIKEN cDNA D830039M14 gene)	1	77.8	84.6
86	D830039M14Rik (RIKEN cDNA D830039M14 gene)	2	107	104
87	D830039M14Rik (RIKEN cDNA D830039M14 gene)	3	73.5	94.3
88	Polr1f (RNA polymerase I subunit F)	1	62	84.6
89	Polr1f (RNA polymerase I subunit F)	2	88.8	90.2
90	Polr1f (RNA polymerase I subunit F)	3	92.2	105
91	Wrap53 (WD repeat containing, antisense to Trp53)	1	48.7	62.6
92	Wrap53 (WD repeat containing, antisense to Trp53)	2	82	93.5
93	Wrap53 (WD repeat containing, antisense to Trp53)	3	129 (active)	130
94	Vmn1r25 (vomeronasal 1 receptor 25)	1	90.9	37
95	Vmn1r25 (vomeronasal 1 receptor 25)	2	78.4	56.5
96	Vmn1r25 (vomeronasal 1 receptor 25)	3	80	93.2
97	Tmem127 (transmembrane protein 127)	1	95.5	87.8
98	Tmem127 (transmembrane protein 127)	2	95.7	71.6
99	Tmem127 (transmembrane protein 127)	3	111	84.5
100	Bach2os (BTB and CNC homology 2, opposite strand)	1	20.8	31.6
101	Bach2os (BTB and CNC homology 2, opposite strand)	2	76	63.9
102	Bach2os (BTB and CNC homology 2, opposite strand)	3	111	141
103	Elovl5 (ELOVL fatty acid elongase 5)	1	130 (active)	94.7
104	Elovl5 (ELOVL fatty acid elongase 5)	2	108	184
105	Elovl5 (ELOVL fatty acid elongase 5)	3	80.2	122
106	Inpp5f (inositol polyphosphate-5-phosphatase F)	1	82.6	65.4
107	Inpp5f (inositol polyphosphate-5-phosphatase F)	2	69.5	55.5
108	Inpp5f (inositol polyphosphate-5-phosphatase F)	3	65.7	92.7

Just “viability (ATP), % of control”, for 6 of the entries above:
Sftpc (surfactant associated protein C) #3: 62.3
Ryr2 (ryanodine receptor 2, cardiac) #1: 89.4
Ryr2 (ryanodine receptor 2, cardiac) #2: 51.3
Ryr2 (ryanodine receptor 2, cardiac) #3: 75.9
Bcar3 (breast cancer anti-estrogen resistance 3) #1: 36.2
Bcar3 (breast cancer anti-estrogen resistance 3) #2: 125
